# Source: the supplement of paper PMC10849652
# Amino acid sequences for entries named in this document (tags omitted). A change or cut given only in a name is not applied to a line headed by its entry.
# UniProt Q12905: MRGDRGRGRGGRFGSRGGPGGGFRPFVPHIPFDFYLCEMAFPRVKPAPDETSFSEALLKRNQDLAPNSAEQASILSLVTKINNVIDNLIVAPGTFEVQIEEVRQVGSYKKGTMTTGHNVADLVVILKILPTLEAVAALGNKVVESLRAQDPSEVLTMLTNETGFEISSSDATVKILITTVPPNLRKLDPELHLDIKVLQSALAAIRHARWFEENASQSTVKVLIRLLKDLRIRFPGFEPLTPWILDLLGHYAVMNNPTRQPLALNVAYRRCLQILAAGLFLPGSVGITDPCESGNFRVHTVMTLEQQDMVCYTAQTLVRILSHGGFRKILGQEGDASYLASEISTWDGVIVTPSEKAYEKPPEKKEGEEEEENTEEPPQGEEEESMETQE
# UniProt P19823: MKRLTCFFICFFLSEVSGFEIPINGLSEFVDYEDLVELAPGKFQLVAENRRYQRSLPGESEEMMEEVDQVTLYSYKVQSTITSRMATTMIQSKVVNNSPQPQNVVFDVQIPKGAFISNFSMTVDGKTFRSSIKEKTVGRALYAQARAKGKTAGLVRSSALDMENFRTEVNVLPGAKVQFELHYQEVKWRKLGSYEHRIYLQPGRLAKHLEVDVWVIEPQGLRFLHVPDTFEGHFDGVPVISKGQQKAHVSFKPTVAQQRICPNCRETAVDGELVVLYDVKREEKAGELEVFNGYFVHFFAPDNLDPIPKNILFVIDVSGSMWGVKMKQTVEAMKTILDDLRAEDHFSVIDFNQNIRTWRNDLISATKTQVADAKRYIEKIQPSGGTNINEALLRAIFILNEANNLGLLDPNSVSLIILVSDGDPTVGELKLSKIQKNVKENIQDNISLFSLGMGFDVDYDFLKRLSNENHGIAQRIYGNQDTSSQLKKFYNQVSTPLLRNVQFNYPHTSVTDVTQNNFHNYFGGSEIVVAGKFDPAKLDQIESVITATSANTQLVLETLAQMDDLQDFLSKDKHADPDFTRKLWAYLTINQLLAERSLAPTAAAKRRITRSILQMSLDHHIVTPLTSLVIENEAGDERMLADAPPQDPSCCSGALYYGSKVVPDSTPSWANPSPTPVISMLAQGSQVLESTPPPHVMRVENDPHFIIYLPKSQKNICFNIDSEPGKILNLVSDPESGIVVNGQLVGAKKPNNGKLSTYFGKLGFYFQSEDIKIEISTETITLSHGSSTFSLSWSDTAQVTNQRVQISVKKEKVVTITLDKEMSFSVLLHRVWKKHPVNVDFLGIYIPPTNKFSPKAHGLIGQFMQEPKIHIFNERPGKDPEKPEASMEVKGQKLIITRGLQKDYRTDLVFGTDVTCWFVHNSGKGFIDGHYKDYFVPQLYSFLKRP
# UniProt Q9H1K1: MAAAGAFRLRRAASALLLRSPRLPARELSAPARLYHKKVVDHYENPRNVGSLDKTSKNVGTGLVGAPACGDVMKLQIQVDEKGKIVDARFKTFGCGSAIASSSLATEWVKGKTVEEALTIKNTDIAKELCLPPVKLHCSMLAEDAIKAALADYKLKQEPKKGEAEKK
# UniProt Q01628, whole entry, looked up: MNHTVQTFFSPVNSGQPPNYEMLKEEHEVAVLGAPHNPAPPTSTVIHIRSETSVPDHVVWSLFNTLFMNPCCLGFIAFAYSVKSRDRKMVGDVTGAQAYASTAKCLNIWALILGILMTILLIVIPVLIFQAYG
# UniProt O14920: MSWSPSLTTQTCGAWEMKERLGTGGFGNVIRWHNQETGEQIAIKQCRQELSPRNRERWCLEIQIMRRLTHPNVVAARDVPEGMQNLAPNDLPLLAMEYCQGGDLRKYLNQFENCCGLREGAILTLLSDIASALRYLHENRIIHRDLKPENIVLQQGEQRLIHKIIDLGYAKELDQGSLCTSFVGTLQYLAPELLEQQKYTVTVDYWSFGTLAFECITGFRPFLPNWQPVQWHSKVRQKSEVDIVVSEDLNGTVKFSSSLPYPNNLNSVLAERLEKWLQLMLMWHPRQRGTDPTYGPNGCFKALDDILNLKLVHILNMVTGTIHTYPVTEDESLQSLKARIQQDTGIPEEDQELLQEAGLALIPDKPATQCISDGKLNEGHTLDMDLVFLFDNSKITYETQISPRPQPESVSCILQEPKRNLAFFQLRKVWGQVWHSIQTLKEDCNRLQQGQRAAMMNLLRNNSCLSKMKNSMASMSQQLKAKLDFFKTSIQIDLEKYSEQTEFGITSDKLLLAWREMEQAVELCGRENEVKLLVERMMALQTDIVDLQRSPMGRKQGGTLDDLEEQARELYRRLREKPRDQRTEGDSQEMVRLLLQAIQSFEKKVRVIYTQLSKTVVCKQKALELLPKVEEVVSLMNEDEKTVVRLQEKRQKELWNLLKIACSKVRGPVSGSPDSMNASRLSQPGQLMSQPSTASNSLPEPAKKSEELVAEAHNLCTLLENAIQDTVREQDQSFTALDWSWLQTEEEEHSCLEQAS
# UniProt Q9NWZ3, whole entry, looked up: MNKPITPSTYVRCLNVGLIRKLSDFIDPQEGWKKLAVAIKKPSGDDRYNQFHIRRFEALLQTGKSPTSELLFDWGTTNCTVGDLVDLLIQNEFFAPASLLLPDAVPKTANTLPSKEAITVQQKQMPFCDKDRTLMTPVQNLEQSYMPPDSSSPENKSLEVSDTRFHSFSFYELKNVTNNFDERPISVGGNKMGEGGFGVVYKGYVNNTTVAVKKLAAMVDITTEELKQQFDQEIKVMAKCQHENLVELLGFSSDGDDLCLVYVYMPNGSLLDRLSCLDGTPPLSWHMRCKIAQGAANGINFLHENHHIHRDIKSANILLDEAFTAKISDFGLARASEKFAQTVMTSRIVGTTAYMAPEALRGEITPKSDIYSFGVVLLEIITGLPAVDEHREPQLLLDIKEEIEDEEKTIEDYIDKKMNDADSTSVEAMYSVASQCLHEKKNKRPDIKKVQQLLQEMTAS
# UniProt O00458: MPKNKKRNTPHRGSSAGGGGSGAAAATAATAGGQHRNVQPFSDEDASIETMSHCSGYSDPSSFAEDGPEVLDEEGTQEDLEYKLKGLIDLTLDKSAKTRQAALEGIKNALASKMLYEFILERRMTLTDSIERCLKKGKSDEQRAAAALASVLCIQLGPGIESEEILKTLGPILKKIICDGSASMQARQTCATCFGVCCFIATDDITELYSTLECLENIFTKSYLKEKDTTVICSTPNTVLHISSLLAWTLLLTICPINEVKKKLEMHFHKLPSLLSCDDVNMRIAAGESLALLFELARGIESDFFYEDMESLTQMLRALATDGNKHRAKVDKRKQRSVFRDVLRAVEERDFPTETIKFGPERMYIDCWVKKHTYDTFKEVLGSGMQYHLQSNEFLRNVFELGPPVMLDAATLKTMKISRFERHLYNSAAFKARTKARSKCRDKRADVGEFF
# UniProt Q9NPH2: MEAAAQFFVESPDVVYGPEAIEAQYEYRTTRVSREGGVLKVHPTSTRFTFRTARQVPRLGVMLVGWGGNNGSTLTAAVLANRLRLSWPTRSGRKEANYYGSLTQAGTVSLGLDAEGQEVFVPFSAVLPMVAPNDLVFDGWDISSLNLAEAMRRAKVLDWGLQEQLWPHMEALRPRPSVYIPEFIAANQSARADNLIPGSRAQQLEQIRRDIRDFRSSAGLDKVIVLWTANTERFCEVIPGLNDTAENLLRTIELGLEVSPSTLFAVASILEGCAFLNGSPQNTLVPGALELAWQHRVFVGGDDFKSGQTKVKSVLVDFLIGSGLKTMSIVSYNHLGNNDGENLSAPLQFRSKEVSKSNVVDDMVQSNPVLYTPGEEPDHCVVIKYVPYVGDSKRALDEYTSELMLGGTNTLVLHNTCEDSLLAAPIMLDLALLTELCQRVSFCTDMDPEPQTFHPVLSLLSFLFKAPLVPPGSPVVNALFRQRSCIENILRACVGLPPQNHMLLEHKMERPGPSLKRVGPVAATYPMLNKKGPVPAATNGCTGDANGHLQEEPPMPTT
# UniProt Q9Y5U9: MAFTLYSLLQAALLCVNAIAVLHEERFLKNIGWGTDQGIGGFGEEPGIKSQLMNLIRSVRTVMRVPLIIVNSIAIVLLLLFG
# UniProt O15357: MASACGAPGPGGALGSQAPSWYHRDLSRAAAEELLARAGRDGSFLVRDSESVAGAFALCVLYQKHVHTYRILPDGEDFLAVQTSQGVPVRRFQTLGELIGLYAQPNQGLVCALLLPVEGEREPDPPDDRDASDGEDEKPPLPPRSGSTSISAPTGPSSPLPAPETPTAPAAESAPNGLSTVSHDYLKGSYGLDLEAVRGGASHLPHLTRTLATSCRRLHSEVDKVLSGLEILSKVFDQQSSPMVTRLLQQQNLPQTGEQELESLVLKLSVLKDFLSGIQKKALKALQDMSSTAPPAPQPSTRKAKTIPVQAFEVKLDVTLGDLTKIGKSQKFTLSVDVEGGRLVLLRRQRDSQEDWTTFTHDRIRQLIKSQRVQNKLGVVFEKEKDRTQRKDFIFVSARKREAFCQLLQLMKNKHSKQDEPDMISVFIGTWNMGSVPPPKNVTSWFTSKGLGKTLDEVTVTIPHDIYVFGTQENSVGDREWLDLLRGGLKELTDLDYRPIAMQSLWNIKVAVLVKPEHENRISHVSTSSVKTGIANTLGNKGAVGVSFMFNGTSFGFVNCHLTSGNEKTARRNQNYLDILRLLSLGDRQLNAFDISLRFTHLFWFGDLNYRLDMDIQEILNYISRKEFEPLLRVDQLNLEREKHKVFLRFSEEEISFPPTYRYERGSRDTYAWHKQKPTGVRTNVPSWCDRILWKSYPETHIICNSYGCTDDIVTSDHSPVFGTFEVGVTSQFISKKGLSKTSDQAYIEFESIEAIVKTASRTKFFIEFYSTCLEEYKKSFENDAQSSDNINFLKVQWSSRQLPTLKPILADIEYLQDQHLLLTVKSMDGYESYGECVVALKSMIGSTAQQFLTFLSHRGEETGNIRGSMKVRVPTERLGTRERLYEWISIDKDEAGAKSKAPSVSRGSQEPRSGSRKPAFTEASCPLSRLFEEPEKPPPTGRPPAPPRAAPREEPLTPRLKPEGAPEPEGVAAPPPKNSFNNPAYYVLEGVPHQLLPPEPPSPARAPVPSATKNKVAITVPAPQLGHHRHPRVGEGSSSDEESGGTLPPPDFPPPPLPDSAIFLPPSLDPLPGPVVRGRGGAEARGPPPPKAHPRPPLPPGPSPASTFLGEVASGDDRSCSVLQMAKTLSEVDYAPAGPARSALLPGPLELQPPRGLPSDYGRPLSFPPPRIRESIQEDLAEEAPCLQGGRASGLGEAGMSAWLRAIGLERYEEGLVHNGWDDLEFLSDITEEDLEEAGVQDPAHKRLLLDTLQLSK
# UniProt Q969R8: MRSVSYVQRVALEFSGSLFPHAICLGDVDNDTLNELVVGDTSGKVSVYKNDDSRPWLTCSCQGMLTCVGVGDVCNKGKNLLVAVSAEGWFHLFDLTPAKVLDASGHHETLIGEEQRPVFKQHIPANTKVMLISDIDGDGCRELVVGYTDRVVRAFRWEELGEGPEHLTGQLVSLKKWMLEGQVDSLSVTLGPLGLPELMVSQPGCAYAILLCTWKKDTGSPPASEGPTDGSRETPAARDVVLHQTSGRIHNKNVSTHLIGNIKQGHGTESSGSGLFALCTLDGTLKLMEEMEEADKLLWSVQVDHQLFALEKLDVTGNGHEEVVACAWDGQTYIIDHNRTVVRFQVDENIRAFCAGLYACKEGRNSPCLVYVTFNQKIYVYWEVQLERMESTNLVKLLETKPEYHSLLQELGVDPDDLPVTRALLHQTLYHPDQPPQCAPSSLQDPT
# UniProt Q9Y287, whole entry, looked up: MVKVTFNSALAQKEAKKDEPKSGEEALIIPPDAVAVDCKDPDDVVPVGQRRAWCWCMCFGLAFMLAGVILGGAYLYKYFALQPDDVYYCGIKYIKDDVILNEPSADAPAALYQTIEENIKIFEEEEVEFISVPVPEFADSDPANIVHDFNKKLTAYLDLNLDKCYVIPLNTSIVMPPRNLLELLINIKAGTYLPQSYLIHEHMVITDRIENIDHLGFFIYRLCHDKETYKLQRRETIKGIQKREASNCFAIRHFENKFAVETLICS
# UniProt Q7Z5L9: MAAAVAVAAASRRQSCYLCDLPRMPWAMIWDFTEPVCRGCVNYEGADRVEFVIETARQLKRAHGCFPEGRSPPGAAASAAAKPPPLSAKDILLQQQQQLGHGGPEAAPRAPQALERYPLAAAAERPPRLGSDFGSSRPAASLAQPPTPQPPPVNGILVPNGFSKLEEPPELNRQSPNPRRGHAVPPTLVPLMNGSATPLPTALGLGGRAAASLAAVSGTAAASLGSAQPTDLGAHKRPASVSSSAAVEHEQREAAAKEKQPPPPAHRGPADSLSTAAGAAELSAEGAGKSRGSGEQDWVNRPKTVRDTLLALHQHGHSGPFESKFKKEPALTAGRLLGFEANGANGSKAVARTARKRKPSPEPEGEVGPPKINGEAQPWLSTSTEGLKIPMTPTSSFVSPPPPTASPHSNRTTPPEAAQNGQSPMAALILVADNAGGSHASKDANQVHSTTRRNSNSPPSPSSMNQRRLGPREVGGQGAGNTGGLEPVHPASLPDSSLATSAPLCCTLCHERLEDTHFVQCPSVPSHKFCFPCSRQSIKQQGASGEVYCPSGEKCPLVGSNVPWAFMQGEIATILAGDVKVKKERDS
# The other results are listed elsewhere or left out.
# Compound: CC1=NC(=CC=C1)C2=C(N=C(N2)C(C)(C)C)C3=CC4=NC=CN=C4C=C3
# Assay: log2 fold change, soluble protein after heating vs DMSO (PISA); higher = thermal stabilisation; K562 cells, 10 uM, 30 min; active = over 0.2 and 3.5 SD of the protein, either way, in both replicates (recomputed)
# Procedure, shortened: (§1)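 K562 cells at 2×10^6 cells/mL were treated with 10 μM compound for 30 min. Aliquots were heated for 3 min across 48°C-58°C, pooled, and extracted in PBS with 0.5% NP-40 at 4°C; soluble protein was the supernatant after 21,000xg for 90 min. Soluble protein was quantified by TMTpro 16plex LC-MS/MS with channel sums equalised, and reported as log2 fold change in thermal stability against DMSO controls, with values from duplicates.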
row,Target,log2 fold change
1,ILKAP (UniProt Q9H0C8),inactive: 0.168
2,ILK (UniProt Q13418),inactive: -0.208
3,IDH3B (UniProt O43837),inactive: 0.014
4,IL27RA (UniProt Q6UWB1),inactive: -0.018
5,ILF2 (UniProt Q12905),inactive: -0.041
6,ILVBL (UniProt A1L0T0),inactive: -0.051
7,ITPKA (UniProt P23677),inactive: 0.155
8,ITIH2 (UniProt P19823),inactive: 0.093
9,INPP5B (UniProt P32019),inactive: 0.007
10,ISCU (UniProt Q9H1K1),inactive: 0.003
11,IFITM3 (UniProt Q01628),inactive: -0.059
12,INTS14 (UniProt Q96SY0),inactive: 0.01
13,IRF3 (UniProt Q14653),inactive: 0.077
14,INTS5 (UniProt Q6P9B9),inactive: 0.042
15,ISY1 isoform 1 (UniProt Q9ULR0),inactive: -0.03
16,IKBKB (UniProt O14920),inactive: -0.235
17,INTS3 (UniProt Q68E01),inactive: -0.005
18,IRAK4 (UniProt Q9NWZ3),inactive: 0.03
19,IFRD1 (UniProt O00458),inactive: -0.04
20,ISYNA1 (UniProt Q9NPH2),inactive: 0.051
21,IER3IP1 (UniProt Q9Y5U9),inactive: -0.322
22,IPO7 (UniProt O95373),inactive: 0.035
23,INPPL1 (UniProt O15357),inactive: 0.01
24,ITFG2 (UniProt Q969R8),inactive: 0.003
25,ILRUN (UniProt Q9H6K1),inactive: 0.005
26,IMMT isoform 2 (UniProt Q16891),inactive: 0.002
27,ISCA2 (UniProt Q86U28),inactive: -0.088
28,ITM2B (UniProt Q9Y287),inactive: -0.046
29,IRF2BP2 (UniProt Q7Z5L9),inactive: 0.081
30,INTS2 (UniProt Q9H0H0),inactive: 0.052

# Compound: CCCCN(Cc1ccc(C(=O)NO)cc1)C(=O)Nc1ccccc1 [Nexturastat A]
# Assay: as above
# Procedure, shortened: as §1
row,Target,log2 fold change
1,ILKAP (UniProt Q9H0C8),inactive: 0
2,ILK (UniProt Q13418),inactive: 0.135
3,IDH3B (UniProt O43837),inactive: -0.042
4,IL27RA (UniProt Q6UWB1),inactive: 0.027
5,ILF2 (UniProt Q12905),inactive: 0.084
6,ILVBL (UniProt A1L0T0),inactive: 0.007
7,ITPKA (UniProt P23677),inactive: 0.166
8,ITIH2 (UniProt P19823),inactive: -0.088
9,INPP5B (UniProt P32019),inactive: 0.096
10,ISCU (UniProt Q9H1K1),inactive: -0.049
11,IFITM3 (UniProt Q01628),active: -0.425
12,INTS14 (UniProt Q96SY0),inactive: -0.07
13,IRF3 (UniProt Q14653),inactive: -0.046
14,INTS5 (UniProt Q6P9B9),inactive: 0.01
15,ISY1 isoform 1 (UniProt Q9ULR0),inactive: 0.03
16,IKBKB (UniProt O14920),inactive: 0.44
17,INTS3 (UniProt Q68E01),inactive: 0.054
18,IRAK4 (UniProt Q9NWZ3),inactive: 0.009
19,IFRD1 (UniProt O00458),inactive: -0.103
20,ISYNA1 (UniProt Q9NPH2),inactive: -0.153
21,IER3IP1 (UniProt Q9Y5U9),inactive: 0.058
22,IPO7 (UniProt O95373),inactive: 0.009
23,INPPL1 (UniProt O15357),inactive: 0.157
24,ITFG2 (UniProt Q969R8),inactive: 0.168
25,ILRUN (UniProt Q9H6K1),inactive: 0.072
26,IMMT isoform 2 (UniProt Q16891),inactive: -0.155
27,ISCA2 (UniProt Q86U28),inactive: -0.114
28,ITM2B (UniProt Q9Y287),inactive: -0.05
29,IRF2BP2 (UniProt Q7Z5L9),inactive: 0.022
30,INTS2 (UniProt Q9H0H0),inactive: -0.066

# Compound: CCCS(=O)(=O)Nc1ccc(F)c(C(=O)c2c[nH]c3ncc(-c4ccc(Cl)cc4)cc23)c1F [vemurafenib]
# Assay: as above
# Procedure, shortened: as §1
row,Target,log2 fold change
1,ILKAP (UniProt Q9H0C8),inactive: 0.08
2,ILK (UniProt Q13418),inactive: -0.075
3,IDH3B (UniProt O43837),inactive: 0.016
4,IL27RA (UniProt Q6UWB1),inactive: -0.025
5,ILF2 (UniProt Q12905),inactive: 0.028
6,ILVBL (UniProt A1L0T0),inactive: 0.037
7,ITPKA (UniProt P23677),inactive: 0.017
8,ITIH2 (UniProt P19823),inactive: 0.157
9,INPP5B (UniProt P32019),inactive: -0.006
10,ISCU (UniProt Q9H1K1),inactive: -0.039
11,IFITM3 (UniProt Q01628),inactive: 0.177
12,INTS14 (UniProt Q96SY0),inactive: 0.063
13,IRF3 (UniProt Q14653),inactive: 0.074
14,INTS5 (UniProt Q6P9B9),inactive: 0.087
15,ISY1 isoform 1 (UniProt Q9ULR0),inactive: -0.032
16,IKBKB (UniProt O14920),inactive: -0.092
17,INTS3 (UniProt Q68E01),inactive: 0.053
18,IRAK4 (UniProt Q9NWZ3),inactive: 0.041
19,IFRD1 (UniProt O00458),inactive: 0.001
20,ISYNA1 (UniProt Q9NPH2),inactive: 0.031
21,IER3IP1 (UniProt Q9Y5U9),inactive: -0.054
22,IPO7 (UniProt O95373),inactive: 0.025
23,INPPL1 (UniProt O15357),inactive: -0.057
24,ITFG2 (UniProt Q969R8),inactive: -0.006
25,ILRUN (UniProt Q9H6K1),inactive: 0.059
26,IMMT isoform 2 (UniProt Q16891),inactive: -0.006
27,ISCA2 (UniProt Q86U28),inactive: 0.025
28,ITM2B (UniProt Q9Y287),inactive: -0.101
29,IRF2BP2 (UniProt Q7Z5L9),inactive: 0.063
30,INTS2 (UniProt Q9H0H0),inactive: -0.035
